{"source": "patent US12601734B2", "about": "“Methods and uses of enzymatic labeling of ADP-ribose containing molecules” (THE JOHNS HOPKINS UNIVERSITY, priority 2018, dated 2026)", "origin": "cited, not measured here", "tested_on": "PAR level", "conditions": "FDA-approved PARP inhibitors; background statement; cited from earlier work", "note": "Some results were stated once for a whole list of compounds, not compound by compound."}
{"smiles": "O=C(c1cc(Cc2n[nH]c(=O)c3ccccc23)ccc1F)N1CCN(C(=O)C2CC2)CC1", "note": "[Olaparib]", "values": [{"measurement": "PAR level reduction at which DNA damage accumulates", "result": "> 90", "unit": "%"}]}
